PubChem BioAssay AID1259308 | NCATS – 2017

Screen: 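Genes whose loss raises luciferase production in HEK293 cells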 (primary screen)
Cell system: human HEK293 embryonic kidney cells stably expressing firefly luciferase (HEK-CMV-Luc2-Hygro)
Reagent: single siRNA against human genes, 0.8 pmol siRNA per well
Time to read-out: 72 h
Measurement: 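Reporter luminescence and viable-cell signal on separate replicate plates, given as percent of non-targeting control and median/MAD z-scores, plus per-cell luciferase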
Scale: total luciferase, z-score and total luciferase, % of control: higher = more reporter protein produced; luciferase per cell, z-score: higher = more reporter output per viable cell; viable cells, % of control: higher = more viable cells
Call rule: 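An siRNA counts as active if its total luciferase robust z-score exceeds 3; genes with two or more such siRNAs out of three were retested with fresh siRNAs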
Calls: active = raised luciferase; inactive = no rise
Shown is a random part of about 59,000 deposited reagents. About 1,510 of all reagents (2.6%) count as active. 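Calls use total luciferase alone and ignore viability, so some active siRNAs may act by altering cell number.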 The numbers tell different reagents against one gene apart.

target	siRNA no.	total luciferase, z-score	total luciferase, % of control	luciferase per cell, z-score	viable cells, % of control	activity call
FGF4 (fibroblast growth factor 4)	1	-0.996	62.1	-1.17	94.3	inactive
FGF4 (fibroblast growth factor 4)	2	1.49	112	1.17	91.6	inactive
FGF4 (fibroblast growth factor 4)	3	1.56	113	1.14	93.4	inactive
C17orf67 (chromosome 17 open reading frame 67)	1	-3.03	21.6	-3.43	59.5	inactive
C17orf67 (chromosome 17 open reading frame 67)	2	-1.23	57.4	-1.3	90.3	inactive
C17orf67 (chromosome 17 open reading frame 67)	3	0.0182	82.2	0.202	87.1	inactive
SDC3 (syndecan 3)	1	0.0177	82.2	3.23	39.3	inactive
SDC3 (syndecan 3)	2	-0.0416	81.1	-0.222	96	inactive
SDC3 (syndecan 3)	3	-2.06	41	-1.52	68.3	inactive
CCDC142 (coiled-coil domain containing 142)	1	-1.09	60.2	-1.56	101	inactive
CCDC142 (coiled-coil domain containing 142)	2	-0.851	65	-0.267	77.9	inactive
CCDC142 (coiled-coil domain containing 142)	3	-0.129	79.3	0.142	85.4	inactive
MRM3 (mitochondrial rRNA methyltransferase 3)	1	1.86	119	1.79	83	inactive
MRM3 (mitochondrial rRNA methyltransferase 3)	2	-0.226	77.4	1.18	63.5	inactive
MRM3 (mitochondrial rRNA methyltransferase 3)	3	0.834	98.5	0.693	91.7	inactive
GHR (growth hormone receptor)	1	0.256	87	-0.151	101	inactive
GHR (growth hormone receptor)	2	0.137	84.6	-0.227	100	inactive
GHR (growth hormone receptor)	3	1.31	108	0.965	93.6	inactive
METAP1D (methionyl aminopeptidase type 1D, mitochondrial)	1	-0.637	69.2	-0.417	86.3	inactive
METAP1D (methionyl aminopeptidase type 1D, mitochondrial)	2	-2.09	40.3	-2.73	92.3	inactive
METAP1D (methionyl aminopeptidase type 1D, mitochondrial)	3	-0.758	66.8	-0.587	87.1	inactive
TSPAN31 (tetraspanin 31)	1	0.697	95.7	0.825	86.1	inactive
TSPAN31 (tetraspanin 31)	2	-0.948	63	-0.66	83.8	inactive
TSPAN31 (tetraspanin 31)	3	1.32	108	1.19	88.3	inactive
PANX3 (pannexin 3)	1	-1.18	58.4	1.36	45.6	inactive
PANX3 (pannexin 3)	2	0.965	101	1.1	84.5	inactive
PANX3 (pannexin 3)	3	0.943	101	0.799	91.1	inactive
TRMT5 (tRNA methyltransferase 5)	1	0.443	90.7	0.265	94.5	inactive
TRMT5 (tRNA methyltransferase 5)	2	-0.365	74.6	-0.00126	83.4	inactive
TRMT5 (tRNA methyltransferase 5)	3	-0.559	70.8	-0.359	86.9	inactive
ZFP42 (ZFP42 zinc finger protein)	1	-0.121	79.5	1.58	58.5	inactive
ZFP42 (ZFP42 zinc finger protein)	2	-1.53	51.4	-0.223	60.9	inactive
ZFP42 (ZFP42 zinc finger protein)	3	1.33	108	1.2	88.4	inactive
TDO2 (tryptophan 2,3-dioxygenase)	1	0.576	93.3	0.696	86.8	inactive
TDO2 (tryptophan 2,3-dioxygenase)	2	1.16	105	1.16	86.5	inactive
TDO2 (tryptophan 2,3-dioxygenase)	3	-0.029	81.3	-0.44	102	inactive
HOXC11 (homeobox C11)	1	-0.394	74	-0.147	86	inactive
HOXC11 (homeobox C11)	2	-0.698	68	-0.254	81.2	inactive
HOXC11 (homeobox C11)	3	-0.53	71.3	-0.304	86.4	inactive
FBXO28 (F-box protein 28)	1	1.07	103	0.995	88.8	inactive
FBXO28 (F-box protein 28)	2	0.0238	82.4	0.0708	90.3	inactive
FBXO28 (F-box protein 28)	3	-0.47	72.5	-0.418	90.5	inactive
THOC7 (THO complex subunit 7)	1	1.86	119	1.11	99.1	inactive
THOC7 (THO complex subunit 7)	2	-0.422	73.5	-0.6	96.2	inactive
THOC7 (THO complex subunit 7)	3	-0.471	72.5	-1.11	108	inactive
S1PR3 (sphingosine-1-phosphate receptor 3)	1	0.00149	81.9	0.764	74.9	inactive
S1PR3 (sphingosine-1-phosphate receptor 3)	2	-0.455	72.8	-0.916	104	inactive
S1PR3 (sphingosine-1-phosphate receptor 3)	3	-0.0342	81.2	0.0373	89.9	inactive
S1PR3 (sphingosine-1-phosphate receptor 3)	4	0.517	92.2	0.499	90.3	inactive
S1PR3 (sphingosine-1-phosphate receptor 3)	5	-0.238	77.2	-0.464	97.4	inactive
S1PR3 (sphingosine-1-phosphate receptor 3)	6	0.521	92.2	0.106	100	inactive
LOC440313 (protein enabled homolog)	1	1.01	102	1.17	83.7	inactive
LOC440313 (protein enabled homolog)	2	0.843	98.7	0.196	105	inactive
LOC440313 (protein enabled homolog)	3	-0.42	73.5	-0.248	87.7	inactive
UBAC2 (UBA domain containing 2)	1	-0.171	78.5	-0.49	99.8	inactive
UBAC2 (UBA domain containing 2)	2	0.0208	82.3	0.813	74.2	inactive
UBAC2 (UBA domain containing 2)	3	-0.209	77.7	-0.562	101	inactive
VWCE (von Willebrand factor C and EGF domains)	1	-0.265	76.6	-0.906	109	inactive
VWCE (von Willebrand factor C and EGF domains)	2	0.271	87.3	-0.175	102	inactive
VWCE (von Willebrand factor C and EGF domains)	3	-2.6	30.3	-1.63	51.9	inactive
AKAP13 (A-kinase anchoring protein 13)	1	5.76	196	3.15	95.7	active
AKAP13 (A-kinase anchoring protein 13)	2	0.21	86.1	0.444	85.6	inactive
AKAP13 (A-kinase anchoring protein 13)	3	1.53	112	1.59	82.7	inactive
MTHFD2	1	-0.701	67.9	-1.22	105	inactive
MTHFD2	2	0.266	87.2	-0.0153	97.8	inactive
MTHFD2	3	0.00385	82	-0.677	109	inactive
SNRNP48 (small nuclear ribonucleoprotein U11/U12 subunit 48)	1	2.08	123	0.865	110	inactive
SNRNP48 (small nuclear ribonucleoprotein U11/U12 subunit 48)	2	-0.843	65.1	0.354	66.3	inactive
SNRNP48 (small nuclear ribonucleoprotein U11/U12 subunit 48)	3	0.538	92.6	0.0208	103	inactive
POLB (DNA polymerase beta)	1	-0.26	76.7	-0.725	104	inactive
POLB (DNA polymerase beta)	2	-0.667	68.6	-0.48	87	inactive
POLB (DNA polymerase beta)	3	-2	42.1	-2.4	88.5	inactive
ZNF460 (zinc finger protein 460)	1	1.77	117	1.8	81.3	inactive
ZNF460 (zinc finger protein 460)	2	0.045	82.8	0.167	88.5	inactive
ZNF460 (zinc finger protein 460)	3	-0.7	68	-0.932	97.1	inactive

Copied from above, 6 entries:
target	siRNA no.	total luciferase, z-score	total luciferase, % of control	luciferase per cell, z-score	viable cells, % of control	activity call
FGF4 (fibroblast growth factor 4)	1	-0.996	62.1	-1.17	94.3	inactive
FGF4 (fibroblast growth factor 4)	2	1.49	112	1.17	91.6	inactive
FGF4 (fibroblast growth factor 4)	3	1.56	113	1.14	93.4	inactive
C17orf67 (chromosome 17 open reading frame 67)	1	-3.03	21.6	-3.43	59.5	inactive
C17orf67 (chromosome 17 open reading frame 67)	2	-1.23	57.4	-1.3	90.3	inactive
C17orf67 (chromosome 17 open reading frame 67)	3	0.0182	82.2	0.202	87.1	inactive
